This note sets out measurements from patent US6794491B1 (Takeda Chemical Industries, Ltd., priority 1995, dated 2004).

A short description of this series: general procedure: Boc solid-phase peptide synthesis; p-methyl-BHA resin; HOBt/DCC. As to conditions: whole synthesis, scale 0.5 mmole.

Where no end group is shown, it is not given here.

As to SRAHQHSMEIRTPDINPAWYAGRGIRPVGRF-NH2, the crude mass is 290 mg; the difficulty met entry was “The Boc-Ala, Boc-Tyr (Br-Z), the condensation of which was found insufficient by ninhydrin test, was recondensed”; the isolated mass is 71 mg.
